{
  "source": "the supplement of paper PMC8728848",
  "binders": {"B1": {"name": "AcfC (Vibrio cholerae), Q57410 (protein)", "chain": "MKSKNRFLLISLLSFSTSVFADVNLYGPGGPHVPLIKVAESFEKSQSKRVNITFGPQATWNDKAKKNADILFGASEHSALAIAEGHSERFSKFNIHPVFMREAIILVKKGNPKNIKGMADLLKPGIGIVVNDGAGVSNTSGTAVWEDSVGRMKNVEKLQAFRSNIHVFAPNSGSARKAFVDGEDIDAWITWVDWAIANPTIGDMVRMEDEYRIYRDFNVVLAKNPSSEAIDFFDYLTKSKDAEAIFQHYGWFK"}},
  "test_in_all_cases": "glycan array binding signal (z-score within array); higher = stronger binding",
  "conditions_in_all_cases": "glycan notation: IUPAC condensed, linker removed",
  "key": {"[1]": {"biological_target": "Neu5Ac(a2-6)Gal(b1-4)GlcNAc(b1-2)Man(a1-3)[Neu5Ac(a2-6)Gal(b1-4)GlcNAc(b1-2)Man(a1-6)]Man(b1-4)GlcNAc(b1-4)GlcNAc", "outline": "(§1)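 From the Consortium for Functional Glycomics database, 3228 arrays were curated, keeping only those whose protein sequence was available. Binding is given as a within-array Z-score averaged across arrays sharing a protein sequence and across linkers. Negative Z-scores can be read as non-binding.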"}, "[2]": {"biological_target": "Neu5Ac(a2-6)Gal(b1-4)GlcNAc(b1-2)Man(a1-6)Man(b1-4)GlcNAc(b1-4)GlcNAc", "outline": "as §1"}, "[3]": {"biological_target": "Neu5Ac(a2-6)Gal(b1-4)GlcNAc(b1-2)Man(a1-6)[Gal(b1-4)GlcNAc(b1-2)Man(a1-3)]Man(b1-4)GlcNAc(b1-4)GlcNAc", "outline": "as §1"}, "[4]": {"biological_target": "Neu5Ac(a2-6)Gal(b1-4)GlcNAc(b1-2)Man(a1-6)[GlcNAc(b1-2)Man(a1-3)]Man(b1-4)GlcNAc(b1-4)GlcNAc", "outline": "as §1"}, "[5]": {"biological_target": "Neu5Ac(a2-6)Gal(b1-4)GlcNAc(b1-2)Man(a1-6)[Man(a1-3)]Man(b1-4)GlcNAc(b1-4)GlcNAc", "outline": "as §1"}, "[6]": {"biological_target": "Neu5Ac(a2-6)Gal(b1-4)GlcNAc(b1-3)Gal(b1-3)GlcNAc", "outline": "as §1"}, "[7]": {"biological_target": "Neu5Ac(a2-6)Gal(b1-4)GlcNAc(b1-3)Gal(b1-4)GlcNAc", "outline": "as §1"}, "[8]": {"biological_target": "Neu5Ac(a2-6)Gal(b1-4)GlcNAc(b1-3)Gal(b1-4)GlcNAc(b1-3)Gal(b1-4)GlcNAc", "outline": "as §1"}, "[9]": {"biological_target": "Neu5Ac(a2-6)Gal(b1-4)GlcNAc(b1-3)Gal(b1-4)[Fuc(a1-3)]GlcNAc(b1-3)Gal(b1-4)[Fuc(a1-3)]GlcNAc", "outline": "as §1"}, "[10]": {"biological_target": "Neu5Ac(a2-6)Gal(b1-4)GlcNAc(b1-3)GalNAc", "outline": "as §1"}, "[11]": {"biological_target": "Neu5Ac(a2-6)Gal(b1-4)GlcNAc6S", "outline": "as §1"}, "[12]": {"biological_target": "Neu5Ac(a2-6)GalNAc", "outline": "as §1"}, "[13]": {"biological_target": "Neu5Ac(a2-6)GalNAc(b1-4)GlcNAc", "outline": "as §1"}, "[14]": {"biological_target": "Neu5Ac(a2-6)GlcNAc(b1-4)GlcNAc", "outline": "as §1"}, "[15]": {"biological_target": "Neu5Ac(a2-6)GlcNAc(b1-4)GlcNAc(b1-4)GlcNAc", "outline": "as §1"}, "[16]": {"biological_target": "Neu5Ac(a2-8)Neu5Ac", "outline": "as §1"}, "[17]": {"biological_target": "Neu5Ac(a2-8)Neu5Ac(a2-3)Gal(b1-4)Glc", "outline": "as §1"}, "[18]": {"biological_target": "Neu5Ac(a2-8)Neu5Ac(a2-3)[GalNAc(b1-4)]Gal(b1-4)Glc", "outline": "as §1"}, "[19]": {"biological_target": "Neu5Ac(a2-8)Neu5Ac(a2-8)Neu5Ac", "outline": "as §1"}, "[20]": {"biological_target": "Neu5Ac(a2-8)Neu5Ac(a2-8)Neu5Ac(a2-3)Gal(b1-4)Glc", "outline": "as §1"}, "[21]": {"biological_target": "Neu5Ac(a2-8)Neu5Ac(a2-8)Neu5Ac(a2-3)[GalNAc(b1-4)]Gal(b1-4)Glc", "outline": "as §1"}, "[22]": {"biological_target": "Neu5Ac(a2-8)Neu5Ac(a2-8)Neu5Ac(a2-8)Neu5Ac(a2-3)[GalNAc(b1-4)]Gal(b1-4)Glc", "outline": "as §1"}, "[23]": {"biological_target": "Neu5Ac(b2-6)Gal(b1-4)GlcNAc", "outline": "as §1"}, "[24]": {"biological_target": "Neu5Ac(b2-6)GalNAc", "outline": "as §1"}, "[25]": {"biological_target": "Neu5Ac9Ac(a2-3)Gal(b1-3)GlcNAc", "outline": "as §1"}, "[26]": {"biological_target": "Neu5Ac9Ac(a2-3)Gal(b1-4)GlcNAc", "outline": "as §1"}, "[27]": {"biological_target": "Neu5Ac9Ac(a2-6)Gal(b1-4)GlcNAc", "outline": "as §1"}, "[28]": {"biological_target": "Neu5Gc(a2-3)Gal(b1-3)GlcNAc", "outline": "as §1"}, "[29]": {"biological_target": "Neu5Gc(a2-3)Gal(b1-3)[Fuc(a1-4)]GlcNAc", "outline": "as §1"}, "[30]": {"biological_target": "Neu5Gc(a2-3)Gal(b1-4)Glc", "outline": "as §1"}, "[31]": {"biological_target": "Neu5Gc(a2-3)Gal(b1-4)GlcNAc", "outline": "as §1"}, "[32]": {"biological_target": "Neu5Gc(a2-3)Gal(b1-4)[Fuc(a1-3)]GlcNAc", "outline": "as §1"}, "[33]": {"biological_target": "Neu5Gc(a2-6)Gal(b1-4)GlcNAc", "outline": "as §1"}, "[34]": {"biological_target": "Neu5Gc(a2-6)GalNAc", "outline": "as §1"}, "[35]": {"biological_target": "Neu5Gc(b2-6)Gal(b1-4)GlcNAc", "outline": "as §1"}},
  "note": "This is one part of the list.",
  "data": [
    {"binder": "B1", "values": [
      {"measurement": "glycan array binding signal (z-score)", "setting": "[1]", "result": 0.559},
      {"measurement": "glycan array binding signal (z-score)", "setting": "[2]", "result": 0.114},
      {"measurement": "glycan array binding signal (z-score)", "setting": "[3]", "result": -0.314},
      {"measurement": "glycan array binding signal (z-score)", "setting": "[4]", "result": -1.18},
      {"measurement": "glycan array binding signal (z-score)", "setting": "[5]", "result": -0.567},
      {"measurement": "glycan array binding signal (z-score)", "setting": "[6]", "result": -0.356},
      {"measurement": "glycan array binding signal (z-score)", "setting": "[7]", "result": -0.343},
      {"measurement": "glycan array binding signal (z-score)", "setting": "[8]", "result": -0.301},
      {"measurement": "glycan array binding signal (z-score)", "setting": "[9]", "result": 0.447},
      {"measurement": "glycan array binding signal (z-score)", "setting": "[10]", "result": -0.94},
      {"measurement": "glycan array binding signal (z-score)", "setting": "[11]", "result": 0.136},
      {"measurement": "glycan array binding signal (z-score)", "setting": "[12]", "result": -1.62},
      {"measurement": "glycan array binding signal (z-score)", "setting": "[13]", "result": -0.666},
      {"measurement": "glycan array binding signal (z-score)", "setting": "[14]", "result": -0.781},
      {"measurement": "glycan array binding signal (z-score)", "setting": "[15]", "result": 0.443},
      {"measurement": "glycan array binding signal (z-score)", "setting": "[16]", "result": 0.214},
      {"measurement": "glycan array binding signal (z-score)", "setting": "[17]", "result": -0.126},
      {"measurement": "glycan array binding signal (z-score)", "setting": "[18]", "result": -0.835},
      {"measurement": "glycan array binding signal (z-score)", "setting": "[19]", "result": -0.292},
      {"measurement": "glycan array binding signal (z-score)", "setting": "[20]", "result": 0.225},
      {"measurement": "glycan array binding signal (z-score)", "setting": "[21]", "result": -0.786},
      {"measurement": "glycan array binding signal (z-score)", "setting": "[22]", "result": 0.753},
      {"measurement": "glycan array binding signal (z-score)", "setting": "[23]", "result": -0.194},
      {"measurement": "glycan array binding signal (z-score)", "setting": "[24]", "result": -0.737},
      {"measurement": "glycan array binding signal (z-score)", "setting": "[25]", "result": -0.008},
      {"measurement": "glycan array binding signal (z-score)", "setting": "[26]", "result": -1.48},
      {"measurement": "glycan array binding signal (z-score)", "setting": "[27]", "result": -0.009},
      {"measurement": "glycan array binding signal (z-score)", "setting": "[28]", "result": -0.149},
      {"measurement": "glycan array binding signal (z-score)", "setting": "[29]", "result": -0.461},
      {"measurement": "glycan array binding signal (z-score)", "setting": "[30]", "result": 0.347},
      {"measurement": "glycan array binding signal (z-score)", "setting": "[31]", "result": -0.421},
      {"measurement": "glycan array binding signal (z-score)", "setting": "[32]", "result": -0.11},
      {"measurement": "glycan array binding signal (z-score)", "setting": "[33]", "result": -0.173},
      {"measurement": "glycan array binding signal (z-score)", "setting": "[34]", "result": -0.625},
      {"measurement": "glycan array binding signal (z-score)", "setting": "[35]", "result": 2.14}
    ]}
  ]
}
